From article PMC11511685
These are yes or no findings as the source states them, for the method shown. Some entries that bind do so weakly or less than the wild type.

Target: T1, C-terminal EF-hand domain of human α-actinin-1 (third and fourth EF-hands, residues 824–892) (human) (UniProt P12814)
T1 sequence: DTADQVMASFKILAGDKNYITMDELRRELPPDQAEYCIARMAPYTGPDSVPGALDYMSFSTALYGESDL
Assay: NMR titration; 15N-1H HSQC and constant-time 13C-1H HSQC of free versus peptide-bound 13C,15N-labelled ACTN_EF34 (0.5 mM); 1.5-fold excess of unlabelled C0 peptide; Ca2+-free; 20 mM Tris-d11 pH 7.5, 1 mM EDTA-d12, 1 mM DTT-d10; 302 K; 800 MHz; both purified

- binding: binds
Substance: peptide fragment of the GluN1 C0 domain (residues 841–865) from the NMDA receptor (from UniProt Q05586 841-865)
